According to PubChem BioAssay AID1487 (National Center for Advancing Translational Sciences (NCATS), 2009):
Some of the results follow. These are further read-outs of the screen, such as a control signal, another cell line or another target. No call is given for them. The list favours compounds with an active or inconclusive main result. The note in brackets gives the kind of curve behind each potency; many fits are weak.

Assay: qHTS Assay for Modulators of Lamin A Splicing
Settings: HeLa LMNA splicing GFP/RFP minigene ratio, 48 h
Method in brief: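 Read-out is the ratio of GFP to DsRed2 object intensity, acquired by 488 nm laser-scanning cytometry on HeLa lamin A-EGFP minigene reporter cells. Compound incubation 48 hrs at 37 °C in Opti-MEM with 2% FBS; DMSO 0.5% final.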

[1] = measured here: GFP splicing reporter channel
[2] = measured here: RFP viability control channel

Row | Compound | AC50 [1] | AC50 [2]
1 | O=C(Nc1ccccc1)c1ccc(Br)c(S(=O)(=O)Nc2cccnc2)c1 | 5.62 µM [rising, single point] | 
2 | COc1cccc(Nc2sc(C(=O)c3ccc(Cl)cc3)c(N)c2C(=O)NCc2ccc(C)cc2)c1 |  | 2.82 µM [falling, partial curve, poor fit]
3 | COc1ccc(CCNC(=O)CN2CCN(c3cccc(C(F)(F)F)c3)CC2)cc1 |  | 35.5 µM [rising, single point]
4 | OC(c1ccccc1)c1nccc2ccccc12 (configuration not stated) | 3.98 µM [falling, full curve] | 5.62 µM [falling, partial curve]
5 | CCOC(=O)C1=NN(c2ccc(Cl)cc2)C(c2ccccc2)CC1=O (configuration not stated) |  | 7.94 µM [rising, partial curve, poor fit]
6 | COc1ccc(C(NC(=O)c2cccc(F)c2)c2ccccc2)cc1 (configuration not stated) |  | 35.5 µM [rising, single point]
7 | CCC(OC(C)=O)c1cc2c(cc1[N+](=O)[O-])OCCO2 (configuration not stated) | 0.00398 µM [falling, full curve, poor fit] | 0.00316 µM [falling, full curve, poor fit]
8 | O=c1cc(CSc2ccc(Cl)cc2)nc(N2CCCCC2)[nH]1 |  | 15.8 µM [rising, partial curve]
9 | Cc1nn2c(=O)cc(COC(=O)c3cccc(NC(=O)c4ccc(C(C)(C)C)cc4)c3)nc2s1 |  | 25.1 µM [rising, partial curve]
10 | CC(=O)c1ccc(NC(=O)C(C)OC(=O)c2ccc(NS(=O)(=O)c3ccc(F)c(F)c3)cc2)cc1 (configuration not stated) | 4.47 µM [rising, partial curve] | 15.8 µM [rising, partial curve, poor fit]
11 | CC(=O)c1c(C)[nH]c(C(=O)OCC(=O)Nc2ccc(C)cc2[N+](=O)[O-])c1C | 0.891 µM [rising, full curve, poor fit] | 1.41 µM [rising, full curve]
12 | CN(C1=C(N2CCOCC2)C(=O)c2ccccc2C1=O)c1ccccc1 |  | 17.8 µM [rising, partial curve, poor fit]
13 | CC(C)(C)C(=O)Nc1nnc(CC(=O)NCc2ccccc2)s1 | 0.0891 µM [rising, full curve, poor fit] | 0.282 µM [rising, full curve, poor fit]
14 | O=C(Cc1csc(-c2ccccc2)n1)NCc1ccccc1F | 12.6 µM [rising, partial curve] | 5.01 µM [rising, partial curve, poor fit]
15 | C#CCOCCOCCOCCNc1nc(N2CCN(C(=O)[C@H](C(C)C)n3cc(CCO)nn3)CC2)nc(N2CCN(C(=O)[C@H]([C@@H](C)CC)n3cc(CCCN=C(N)N)nn3)CC2)n1 |  | 1 µM [falling, full curve, poor fit]
16 | CNS(=O)(=O)c1ccc2nc(NC(=O)/C=C/c3ccco3)sc2c1 |  | 0.891 µM [falling, partial curve, poor fit]
17 | O=c1[nH]c(CSc2nc3ccccc3o2)nc2c1cnn2-c1ccccc1 | 17.8 µM [rising, single point] | 11.2 µM [rising, partial curve, poor fit]
18 | CN(C)S(=O)(=O)c1ccc(Oc2ccc(S(=O)(=O)N(C)C)cc2)cc1 |  | 10 µM [rising, partial curve, poor fit]
19 | COc1ccc(NC(=O)NNc2cc(N3CCOCC3)nc(N3CCOCC3)n2)cc1 | 3.16 µM [falling, partial curve, poor fit] | 
20 | Fc1cc(Br)ccc1NC(=S)Nc1ccccc1 |  | 31.6 µM [rising, single point]
21 | O=c1[nH]c2cc(Cl)ccc2c(O)c1-c1ccc(Oc2ccccc2)cc1 | 0.000891 µM [falling, full curve, poor fit] | 0.000891 µM [falling, full curve, poor fit]
22 | CCN(CC)S(=O)(=O)c1nnc(NC(=O)c2ccc(C(C)C)cc2)s1 |  | 11.2 µM [falling, partial curve, poor fit]
23 | C=CC(=O)NC(NC(=O)C=C)c1ccc(Br)cc1 | 35.5 µM [falling, single point] | 
24 | COCCN(C(=O)Cc1cccs1)c1nnc(-c2cccnc2)s1 | 6.31 µM [rising, partial curve] | 
25 | Cc1ccc(S(=O)(=O)N2CCC(=O)N(C(COCc3cccc(Cl)c3)Cc3ccccc3)CC2)cc1 (configuration not stated) | 11.2 µM [rising, single point] | 31.6 µM [rising, single point]
26 | Cn1c(/C=C/N2CCOCC2)c(C(=O)c2ccc(Br)cc2)c(=O)n(C)c1=O |  | 11.2 µM [rising, partial curve]
27 | CC(O)CC(C(=O)NNc1ccccc1)C(=O)NNc1ccccc1 (configuration not stated) |  | 2.51 µM [rising, full curve]
28 | COc1ccc(CNC(=O)C2CCN(C(=O)N3CC(C)Oc4ccc(C)cc43)CC2)cc1 (configuration not stated) |  | 8.91 µM [falling, full curve]

Row | Compound | AC50 [1] | AC50 [2]
29 | O=C1OC(c2ccc(F)cc2)=N/C1=C\c1ccc(Br)o1 |  | 0.562 µM [falling, full curve, poor fit]
30 | CN(C)c1ccc(/C=N/NC(=O)c2ccccc2Cl)cc1 |  | 17.8 µM [rising, partial curve]
31 | O=C(c1cccs1)N1N=C(c2ccccc2)CC1c1ccccc1 (configuration not stated) |  | 15.8 µM [rising, single point]
32 | COc1ccc(NS(=O)(=O)c2ccc(N3CCOCC3)c(NC(=O)c3ccc(OC)cc3)c2)cc1 |  | 10 µM [rising, partial curve]
33 | O=C1CCCN1C(=O)CCC(=O)N1CCCC1=O | 0.708 µM [rising, full curve, poor fit] | 1.26 µM [rising, partial curve]
34 | O=C(NNC(=S)Nc1ccc(Cl)cc1Cl)c1ccc(N2CCOCC2)c([N+](=O)[O-])c1 |  | 31.6 µM [rising, single point]
35 | O=C(CSc1cn(CCNC(=O)c2ccc3ccccc3c2)c2ccccc12)NCc1ccco1 |  | 8.91 µM [rising, partial curve]
36 | CCOC(=O)C1CCCN(Cc2nc(N)nc(Nc3ccc(OC)cc3)n2)C1 (configuration not stated) |  | 28.2 µM [rising, single point]
37 | CCOC(=O)COc1ccc(Br)cc1/C=C\c1[nH]c(=O)[nH]c(=O)c1[N+](=O)[O-] |  | 3.16 µM [rising, single point]
38 | CCc1ccc(NC(=O)CSc2nc3ccccc3c(=O)n2CCN2CCOCC2)cc1 |  | 31.6 µM [rising, single point]
39 | COc1cc(C(=O)OCC(=O)NC2CCS(=O)(=O)C2)c([N+](=O)[O-])cc1OC (configuration not stated) | 17.8 µM [rising, partial curve] | 7.94 µM [rising, partial curve, poor fit]
40 | Cc1ccc(C(=O)Oc2ccc(N3C(=O)CCC3=O)c(C)c2)cc1 |  | 0.0708 µM [rising, full curve, poor fit]
41 | CCOC(=O)c1ccc(OC(=O)CCCCCN=C(N)N)cc1 | 0.708 µM [falling, partial curve, poor fit] | 
42 | Cc1cccc(C(=O)NCc2nnc(SCC(=O)NC(C)c3ccccc3)n2C)c1 (configuration not stated) | 3.16 µM [falling, partial curve, poor fit] | 3.98 µM [falling, single point]
43 | Nc1nc(NC(=O)c2ccc(Cl)cc2)nn1-c1ccccc1 |  | 17.8 µM [rising, single point]
44 | Clc1cccc(Cl)c1-c1nnc2cccc(Cl)n12 |  | 8.91 µM [rising, partial curve]
45 | OCc1ccc(O)c2ncccc12 | 0.0282 µM [falling, partial curve] | 0.0316 µM [falling, partial curve]
46 | COc1ccc(CNC(=O)CSc2ccc(Br)cc2)cc1OC | 0.0126 µM [falling, full curve] | 
47 | O=C(COc1ccccc1Br)NCCc1nc2ccccc2[nH]1 |  | 12.6 µM [rising, single point]
48 | Cc1cccc2c(C(=O)O)cc(-c3cccnc3)nc12 |  | 0.0178 µM [falling, full curve, poor fit]
49 | CCN(CC)CCCNC(=O)c1cc2c(-c3ccc(Cl)cc3)nn(C)c2s1 | 10 µM [rising, partial curve] | 12.6 µM [rising, partial curve]
50 | CCOC(=O)c1c(C)[nH]c(C(=O)OC/C(O)=C(\C#N)c2nc3ccccc3[nH]2)c1C | 35.5 µM [falling, single point] | 35.5 µM [falling, single point]
51 | CN(C)CCNC(=O)/C(=C/c1ccc(-c2cccc(Cl)c2)o1)NC(=O)c1ccccc1 |  | 0.0562 µM [rising, full curve]
52 | COc1ccc(NC(=O)CCCN(C)S(=O)(=O)c2ccc(C)cc2)cc1 | 35.5 µM [rising, single point] | 22.4 µM [rising, single point]
53 | COc1ccccc1C1NC=C([N+](=O)[O-])C=C1[N+](=O)[O-] (configuration not stated) | 12.6 µM [rising, single point] | 
54 | Cc1cccc(-n2ncc(C(=O)NCc3ccccn3)c2C2CCN(C(=O)OC(C)(C)C)CC2)c1 |  | 0.0224 µM [falling, full curve, poor fit]
55 | CCN(CC)S(=O)(=O)c1cccc(NC(=O)COc2ccc(C#N)cc2OC)c1 | 35.5 µM [rising, single point] | 35.5 µM [rising, single point]

From compound 46 as far as 49, copied from above:
Row | Compound | AC50 [1] | AC50 [2]
46 | COc1ccc(CNC(=O)CSc2ccc(Br)cc2)cc1OC | 0.0126 µM [falling, full curve] | 
47 | O=C(COc1ccccc1Br)NCCc1nc2ccccc2[nH]1 |  | 12.6 µM [rising, single point]
48 | Cc1cccc2c(C(=O)O)cc(-c3cccnc3)nc12 |  | 0.0178 µM [falling, full curve, poor fit]
49 | CCN(CC)CCCNC(=O)c1cc2c(-c3ccc(Cl)cc3)nn(C)c2s1 | 10 µM [rising, partial curve] | 12.6 µM [rising, partial curve]
